{
  "source": "the supplement of paper PMC8728848",
  "experiment_in_all_cases": "glycan array binding signal (z-score within array); higher = stronger binding",
  "conditions_in_all_cases": "glycan notation: IUPAC condensed, linker removed",
  "key": {"[1]": {"target": "Gal(b1-2)Gal", "summary_of_the_method": "(§1)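 From the Consortium for Functional Glycomics database, 3228 arrays were curated, keeping only those whose protein sequence was available. Binding is given as a within-array Z-score averaged across arrays sharing a protein sequence and across linkers. Negative Z-scores can be read as non-binding.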"}, "[2]": {"target": "Gal(b1-3)Gal", "summary_of_the_method": "as §1"}, "[3]": {"target": "Gal(b1-3)Gal(b1-4)GlcNAc", "summary_of_the_method": "as §1"}, "[4]": {"target": "Gal(b1-3)GalNAc", "summary_of_the_method": "as §1"}, "[5]": {"target": "Gal(b1-3)GalNAc(a1-3)[Fuc(a1-2)]Gal(b1-4)Glc", "summary_of_the_method": "as §1"}, "[6]": {"target": "Gal(b1-3)GalNAc(a1-3)[Fuc(a1-2)]Gal(b1-4)GlcNAc", "summary_of_the_method": "as §1"}, "[7]": {"target": "Gal(b1-3)GalNAc(b1-3)Gal", "summary_of_the_method": "as §1"}, "[8]": {"target": "Gal(b1-3)GalNAc(b1-3)Gal(a1-4)Gal(b1-4)Glc", "summary_of_the_method": "as §1"}, "[9]": {"target": "Gal(b1-3)GalNAc(b1-4)Gal(b1-4)Glc", "summary_of_the_method": "as §1"}, "[10]": {"target": "Gal(b1-3)GalNAc(b1-4)[Neu5Ac(a2-3)]Gal(b1-4)Glc", "summary_of_the_method": "as §1"}, "[11]": {"target": "Gal(b1-3)GlcNAc", "summary_of_the_method": "as §1"}, "[12]": {"target": "Gal(b1-3)GlcNAc(a1-3)Gal(b1-4)GlcNAc", "summary_of_the_method": "as §1"}, "[13]": {"target": "Gal(b1-3)GlcNAc(a1-6)Gal(b1-4)GlcNAc", "summary_of_the_method": "as §1"}, "[14]": {"target": "Gal(b1-3)GlcNAc(b1-2)Man", "summary_of_the_method": "as §1"}, "[15]": {"target": "Gal(b1-3)GlcNAc(b1-2)Man(a1-3)[Gal(b1-3)GlcNAc(b1-2)Man(a1-6)]Man(b1-4)GlcNAc(b1-4)GlcNAc", "summary_of_the_method": "as §1"}, "[16]": {"target": "Gal(b1-3)GlcNAc(b1-2)Man(a1-3)[Gal(b1-3)GlcNAc(b1-2)Man(a1-6)]Man(b1-4)GlcNAc(b1-4)[Fuc(a1-6)]GlcNAc", "summary_of_the_method": "as §1"}, "[17]": {"target": "Gal(b1-3)GlcNAc(b1-2)Man(a1-3)[GlcNAc(b1-4)][Gal(b1-3)GlcNAc(b1-2)Man(a1-6)]Man(b1-4)GlcNAc(b1-4)GlcNAc", "summary_of_the_method": "as §1"}, "[18]": {"target": "Gal(b1-3)GlcNAc(b1-2)[Gal(b1-3)GlcNAc(b1-6)]Man(a1-6)[Gal(b1-3)GlcNAc(b1-2)Man(a1-3)]Man(b1-4)GlcNAc(b1-4)GlcNAc", "summary_of_the_method": "as §1"}, "[19]": {"target": "Gal(b1-3)GlcNAc(b1-3)Gal(b1-3)GlcNAc", "summary_of_the_method": "as §1"}, "[20]": {"target": "Gal(b1-3)GlcNAc(b1-3)Gal(b1-4)Glc", "summary_of_the_method": "as §1"}, "[21]": {"target": "Gal(b1-3)GlcNAc(b1-3)Gal(b1-4)GlcNAc", "summary_of_the_method": "as §1"}, "[22]": {"target": "Gal(b1-3)GlcNAc(b1-3)Gal(b1-4)GlcNAc(b1-2)Man(a1-3)[Gal(b1-3)GlcNAc(b1-3)Gal(b1-4)GlcNAc(b1-2)Man(a1-6)]Man(b1-4)GlcNAc(b1-4)GlcNAc", "summary_of_the_method": "as §1"}, "[23]": {"target": "Gal(b1-3)GlcNAc(b1-3)Gal(b1-4)GlcNAc(b1-2)[Gal(b1-3)GlcNAc(b1-3)Gal(b1-4)GlcNAc(b1-6)]Man(a1-6)[Gal(b1-3)GlcNAc(b1-3)Gal(b1-4)GlcNAc(b1-2)Man(a1-3)]Man(b1-4)GlcNAc(b1-4)[Fuc(a1-6)]GlcNAc", "summary_of_the_method": "as §1"}, "[24]": {"target": "Gal(b1-3)GlcNAc(b1-3)Gal(b1-4)GlcNAc(b1-3)Gal(b1-4)GlcNAc(b1-2)[Gal(b1-3)GlcNAc(b1-3)Gal(b1-4)GlcNAc(b1-3)Gal(b1-4)GlcNAc(b1-6)]Man(a1-6)[Gal(b1-3)GlcNAc(b1-3)Gal(b1-4)GlcNAc(b1-3)Gal(b1-4)GlcNAc(b1-2)Man(a1-3)]Man(b1-4)GlcNAc(b1-4)[Fuc(a1-6)]GlcNAc", "summary_of_the_method": "as §1"}, "[25]": {"target": "Gal(b1-3)GlcNAc(b1-3)Gal(b1-4)GlcNAc(b1-6)[Gal(b1-3)GlcNAc(b1-3)]Gal(b1-4)Glc", "summary_of_the_method": "as §1"}, "[26]": {"target": "Gal(b1-3)GlcNAc(b1-3)Gal(b1-4)[Fuc(a1-3)]GlcNAc", "summary_of_the_method": "as §1"}, "[27]": {"target": "Gal(b1-3)GlcNAc(b1-3)Gal(b1-4)[Fuc(a1-3)]GlcNAc(b1-6)[Gal(b1-3)GlcNAc(b1-3)]Gal(b1-4)Glc", "summary_of_the_method": "as §1"}, "[28]": {"target": "Gal(b1-3)GlcNAc(b1-3)GalNAc", "summary_of_the_method": "as §1"}, "[29]": {"target": "Gal(b1-3)GlcNAc(b1-6)Gal(b1-4)GlcNAc", "summary_of_the_method": "as §1"}, "[30]": {"target": "Gal(b1-3)GlcNAc(b1-6)GalNAc", "summary_of_the_method": "as §1"}, "[31]": {"target": "Gal(b1-3)GlcNAc(b1-6)[Gal(b1-3)]GalNAc", "summary_of_the_method": "as §1"}, "[32]": {"target": "Gal(b1-3)GlcNAc6S", "summary_of_the_method": "as §1"}, "[33]": {"target": "Gal(b1-3)[Fuc(a1-4)]GlcNAc", "summary_of_the_method": "as §1"}, "[34]": {"target": "Gal(b1-3)[Fuc(a1-4)]GlcNAc(b1-2)Man", "summary_of_the_method": "as §1"}, "[35]": {"target": "Gal(b1-3)[Fuc(a1-4)]GlcNAc(b1-2)Man(a1-3)[Gal(b1-3)[Fuc(a1-4)]GlcNAc(b1-2)Man(a1-6)]Man(b1-4)GlcNAc(b1-4)[Fuc(a1-6)]GlcNAc", "summary_of_the_method": "as §1"}, "[36]": {"target": "Gal(b1-3)[Fuc(a1-4)]GlcNAc(b1-3)Gal(b1-3)[Fuc(a1-4)]GlcNAc", "summary_of_the_method": "as §1"}, "[37]": {"target": "Gal(b1-3)[Fuc(a1-4)]GlcNAc(b1-3)Gal(b1-4)[Fuc(a1-3)]GlcNAc", "summary_of_the_method": "as §1"}, "[38]": {"target": "Gal(b1-3)[Fuc(a1-4)]GlcNAc(b1-6)GalNAc", "summary_of_the_method": "as §1"}, "[39]": {"target": "Gal(b1-3)[GlcNAc(b1-6)]GalNAc", "summary_of_the_method": "as §1"}, "[40]": {"target": "Gal(b1-3)[Neu5Ac(a2-6)]GalNAc", "summary_of_the_method": "as §1"}, "[41]": {"target": "Gal(b1-3)[Neu5Ac(a2-6)]GlcNAc(b1-4)Gal(b1-4)Glc", "summary_of_the_method": "as §1"}, "[42]": {"target": "Gal(b1-3)[Neu5Ac(b2-6)]GalNAc", "summary_of_the_method": "as §1"}, "[43]": {"target": "Gal(b1-4)Gal", "summary_of_the_method": "as §1"}, "[44]": {"target": "Gal(b1-4)GalNAc(a1-3)[Fuc(a1-2)]Gal(b1-4)GlcNAc", "summary_of_the_method": "as §1"}, "[45]": {"target": "Gal(b1-4)GalNAc(b1-3)[Fuc(a1-2)]Gal(b1-4)GlcNAc", "summary_of_the_method": "as §1"}},
  "note": "Some of the results follow.",
  "data": [
    {"binder": "Mermaid1 (Stilbonema majum) (protein) MGSSHHHHHHSSGLVPRGSHMAASGWLRSPQGTVVKLYRRSLSWSKADEFCKDVDGRLVVDRTADMHLFLIKNVLKEKKSRVWVGLRRTAPHSRTWIWSDGTRQNEDDLDANLWLRDEPNDAAGEEECALFMYSPWEKAWGLNDYLCRGGCRSYQFICEKWIR", "values": [
      {"measurement": "glycan array binding signal (z-score)", "setting": "[1]", "value": 0.189},
      {"measurement": "glycan array binding signal (z-score)", "setting": "[2]", "value": 1.56},
      {"measurement": "glycan array binding signal (z-score)", "setting": "[3]", "value": 0.711},
      {"measurement": "glycan array binding signal (z-score)", "setting": "[4]", "value": 2.5},
      {"measurement": "glycan array binding signal (z-score)", "setting": "[5]", "value": 0.47},
      {"measurement": "glycan array binding signal (z-score)", "setting": "[6]", "value": 0.877},
      {"measurement": "glycan array binding signal (z-score)", "setting": "[7]", "value": -0.806},
      {"measurement": "glycan array binding signal (z-score)", "setting": "[8]", "value": -0.503},
      {"measurement": "glycan array binding signal (z-score)", "setting": "[9]", "value": -0.441},
      {"measurement": "glycan array binding signal (z-score)", "setting": "[10]", "value": 0.137},
      {"measurement": "glycan array binding signal (z-score)", "setting": "[11]", "value": -0.62},
      {"measurement": "glycan array binding signal (z-score)", "setting": "[12]", "value": -0.574},
      {"measurement": "glycan array binding signal (z-score)", "setting": "[13]", "value": 0.067},
      {"measurement": "glycan array binding signal (z-score)", "setting": "[14]", "value": -0.474},
      {"measurement": "glycan array binding signal (z-score)", "setting": "[15]", "value": 0.438},
      {"measurement": "glycan array binding signal (z-score)", "setting": "[16]", "value": 0.098},
      {"measurement": "glycan array binding signal (z-score)", "setting": "[17]", "value": -0.487},
      {"measurement": "glycan array binding signal (z-score)", "setting": "[18]", "value": -0.787},
      {"measurement": "glycan array binding signal (z-score)", "setting": "[19]", "value": -0.336},
      {"measurement": "glycan array binding signal (z-score)", "setting": "[20]", "value": -0.562},
      {"measurement": "glycan array binding signal (z-score)", "setting": "[21]", "value": -0.048},
      {"measurement": "glycan array binding signal (z-score)", "setting": "[22]", "value": -0.024},
      {"measurement": "glycan array binding signal (z-score)", "setting": "[23]", "value": 4.98},
      {"measurement": "glycan array binding signal (z-score)", "setting": "[24]", "value": 6.8},
      {"measurement": "glycan array binding signal (z-score)", "setting": "[25]", "value": -0.457},
      {"measurement": "glycan array binding signal (z-score)", "setting": "[26]", "value": -0.845},
      {"measurement": "glycan array binding signal (z-score)", "setting": "[27]", "value": -0.624},
      {"measurement": "glycan array binding signal (z-score)", "setting": "[28]", "value": -0.72},
      {"measurement": "glycan array binding signal (z-score)", "setting": "[29]", "value": -0.416},
      {"measurement": "glycan array binding signal (z-score)", "setting": "[30]", "value": 0.045},
      {"measurement": "glycan array binding signal (z-score)", "setting": "[31]", "value": 0.436},
      {"measurement": "glycan array binding signal (z-score)", "setting": "[32]", "value": -0.573},
      {"measurement": "glycan array binding signal (z-score)", "setting": "[33]", "value": 0.262},
      {"measurement": "glycan array binding signal (z-score)", "setting": "[34]", "value": 0.769},
      {"measurement": "glycan array binding signal (z-score)", "setting": "[35]", "value": 1.16},
      {"measurement": "glycan array binding signal (z-score)", "setting": "[36]", "value": 0.007},
      {"measurement": "glycan array binding signal (z-score)", "setting": "[37]", "value": -0.78},
      {"measurement": "glycan array binding signal (z-score)", "setting": "[38]", "value": -0.626},
      {"measurement": "glycan array binding signal (z-score)", "setting": "[39]", "value": -0.535},
      {"measurement": "glycan array binding signal (z-score)", "setting": "[40]", "value": -0.195},
      {"measurement": "glycan array binding signal (z-score)", "setting": "[41]", "value": -0.953},
      {"measurement": "glycan array binding signal (z-score)", "setting": "[42]", "value": -0.405},
      {"measurement": "glycan array binding signal (z-score)", "setting": "[43]", "value": 3.2},
      {"measurement": "glycan array binding signal (z-score)", "setting": "[44]", "value": 1.62},
      {"measurement": "glycan array binding signal (z-score)", "setting": "[45]", "value": 1.83}
    ]}
  ]
}
